The campaign covered roughly 330,000 compounds. About 7,700 (2.3%) were called active. The shares of active, inactive and inconclusive entries below differ from those in the screen. The call rests on the fitted dose curve; in most records, active means well fitted inhibition curve with a large enough effect; inconclusive means small, poorly fitted or top-dose-only effect, or effect the other way; inactive means flat fitted curve, though single readings scatter. Potencies beside an inconclusive call are fits to weak or partial responses and may not hold up.
Experiment: qHTS screen for small molecules that inhibit ELG1-dependent DNA repair in human embryonic kidney (HEK293T) cells expressing luciferase-tagged ELG1; further: nearly all actives have a fitted effect of over 55% in size
Conditions: HEK293T ELG1-luciferase reporter, luminescence, 16 h, DNA damage induced by 5-fluorouridine; series mostly up to 46.1 µM
Summary of the method: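 5-Fluorouridine DNA damage + compound/DMSO, 2,000 cells/well, 16 h, 37 °C/5% CO2. ONE-Glo, 30 min RT, luminescence. Readout = decrease in reporter signal.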
In the case of `CCOC(=O)CNC(=O)CSc1nc2c(C)cccc2cc1CC`, the Potency is reported as “inactive”.
In the case of `CC1(C)Cc2nc3sc4c(NCCO)ncnc4c3cc2CS1`, the Potency is reported as “inactive”.
In the case of `O=C(Cc1cccs1)NNC(=O)c1ccccc1Cl`, the Potency is reported as inconclusive: 18.3 µM [activator, single point].
For `COCCCNC(=O)c1ccc(Cn2c(=O)c3ccccc3n(Cc3ccc(C)cc3)c2=O)cc1`, the Potency was “inactive”.
For `c1ccc2oc(SCc3cn4ccsc4n3)nc2c1`, the Potency was inconclusive: 6.51 µM [activator, partial curve].
With `CCOc1ccc2nc(SCC#N)c(C#N)cc2c1` the Potency was inconclusive: 11.6 µM [activator, partial curve].
In the case of `CC(/C=N/NC(=O)CSc1nc2ccccc2n1C)=C\c1ccco1`, the Potency is reported as “inactive”.
For `Cc1cc(C)n(CC(=O)N2CCCC(N3CCN(c4ccc(F)cc4)CC3)C2)n1` (stereo not drawn), the Potency was “inactive”.
For `CCCCc1c(O)nc(SCC(=O)Nc2cccc3ccccc23)n(-c2ccccc2OC)c1=O`, the Potency was inconclusive: 16.4 µM [activator, partial curve, poor fit].
In the case of `Nc1nc2ccccc2n1/N=C/c1ccc([N+](=O)[O-])s1`, the Potency is reported as inconclusive: 2.31 µM [inhibitor, full curve].
With `COc1ccc(NC(=O)C(=O)N/N=C/c2cccnc2)cc1` the Potency was “inactive”.
In the case of `CC1=C(C(=O)Nc2cc(C(=O)N(C)Cc3ccccc3)ccc2C)SCCO1`, the Potency is reported as inconclusive: 25.9 µM [inhibitor, single point].
For `CNC(=O)NC(=O)CSc1ccc(S(=O)(=O)N(C)C2CCCCC2)cn1`, the Potency was “inactive”.
In the case of `CCOc1ccc(C(CC(=O)O)NS(=O)(=O)c2ccc(C)cc2)cc1OC` (stereo not drawn), the Potency is reported as “inactive”.
With `O=C(c1ccc(Cl)cc1)C1CCN(C(=O)c2ccc(F)cc2)CC1` the Potency was inconclusive: 8.2 µM [inhibitor, partial curve].
In the case of `CCOC(=O)NC(=S)Nc1cccc(NC(=S)NC(=O)OCC)c1`, the Potency is reported as “inactive”.
For `Cc1nc2sc(C(c3ccco3)N3CCN(C(c4ccccc4)c4ccccc4)CC3)c(O)n2n1` (stereo not drawn), the Potency was inconclusive: 20.6 µM [inhibitor, single point].
For `O=C(CN1C(=O)CCS(=O)(=O)c2ccccc21)Nc1ccc(F)cc1`, the Potency was inconclusive: 14.6 µM [activator, partial curve].
In the case of `CCOC(=O)N1CCN(CC(=O)Nc2cc(OC)c(OC)cc2C#N)CC1`, the Potency is reported as “inactive”.
For `CN1CCN(C(=S)Nc2ccc([N+](=O)[O-])cc2)CC1`, the Potency was inconclusive: 16.4 µM [activator, partial curve, poor fit].
For `CC(NC(=O)C12CC3(C)CC(C)(CC(C)(C3)C1)C2)C(=O)O` (stereo not drawn), the Potency was inconclusive: 25.9 µM [activator, partial curve, poor fit].
In the case of `ONC(=Nc1ccc(Cl)cc1)c1ccc(Cl)cc1`, the Potency is reported as inconclusive: 14.6 µM [activator, partial curve].
In the case of `CCCCNC(=O)C1CCN(S(=O)(=O)c2ccc3c(c2)CC(C)N3C(=O)C2CC2)CC1` (stereo not drawn), the Potency is reported as inconclusive: 0.0058 µM [activator, full curve, poor fit].
For `CC(=O)c1c(C)[nH]c(C(=O)OCC(=O)N2CCc3ccccc32)c1C`, the Potency was inconclusive: 4.61 µM [activator, full curve, poor fit].
For `CS(=O)(=O)N1CCC(C(=O)Nc2cccc(Cl)c2Cl)CC1`, the Potency was “inactive”.
For `O=C1CN(S(=O)(=O)c2ccccc2)CCN1S(=O)(=O)c1ccccc1`, the Potency was “inactive”.
In the case of `CN1CCN(CC#CC2(O)CCCCC2)CC1`, the Potency is reported as inconclusive: 32.6 µM [activator, single point].
For `C1=CC2CC1CC2CN1CCN(Cc2ccccc2)CC1` (stereo not drawn), the Potency was inconclusive: 29.1 µM [activator, single point].
In the case of `Cc1ccc2c(c1)C(c1ccccc1)N(C(=O)c1ccc(Br)o1)CC(=O)N2` (stereo not drawn), the Potency is reported as inconclusive: 20.6 µM [inhibitor, partial curve, poor fit].
In the case of `COC(=O)c1c(C)[nH]c(C(=O)/C=C/c2ccc(Cl)cc2)c1C`, the Potency is reported as inconclusive: 20.6 µM [activator, partial curve].
In the case of `Cc1cccc(-n2cnc3c(c2=O)c2nc4ccccc4nc2n3Cc2ccco2)c1`, the Potency is reported as active: 18.4 µM.
In the case of `CN(C)S(=O)(=O)c1ccc(N2CCCC2)c(C(=O)NNC(=O)COc2cccc(F)c2)c1`, the Potency is reported as “inactive”.
With `CN1CCCC1CCNc1ccc2c(=O)c3ccccc3oc2c1` (stereo not drawn) the Potency was inconclusive: 23.1 µM [activator, partial curve].
For `COc1ccc(NC(=O)c2ccc(=O)oc2)cc1`, the Potency was “inactive”.
In the case of `Fc1ccc(NC(=S)NN2CCOCC2)cc1Cl`, the Potency is reported as “inactive”.
In the case of `Cc1ccc(S(=O)(=O)O/N=C2\CCCc3ccccc32)cc1`, the Potency is reported as “inactive”.
In the case of `O=C(Nc1ccc(N2CCN(C(=O)c3ccccc3)CC2)cc1)c1cc2ccccc2o1`, the Potency is reported as active: 9.2 µM.
With `S=C(Nc1cccc(Cl)c1)Nc1ccc2c(c1)OCCO2` the Potency was inconclusive: 8.2 µM [activator, partial curve].
With `C/C(=N\Nc1nncc2ccccc12)c1ccc(OCC(=O)N(C)C)cc1` the Potency was inconclusive: 16.4 µM [activator, partial curve].
For `CCOC(=O)c1cc2c(=O)n3ccccc3nc2n(Cc2ccco2)c1=NC(=O)c1ccc(OC)cc1`, the Potency was inconclusive: 29.1 µM [inhibitor, single point].
With `Cc1ccc(C(=O)NNC(=O)/C=C\C(=O)O)cc1` the Potency was inconclusive: 18.3 µM [activator, single point].
With `COc1ccc(CN2C(=S)NC(C)(C)CC2(C)O)cc1` (stereo not drawn) the Potency was “inactive”.
With `CCOC(=O)C1=CN(CC)S(=O)(=O)NC1c1ccc(F)c(Cl)c1` (stereo not drawn) the Potency was inconclusive: 23.1 µM [activator, partial curve, poor fit].
For `O=S(=O)(c1ccccc1)c1ccc(N2CCCCCC2)cc1`, the Potency was “inactive”.
In the case of `CCc1ccc(N2C(=O)CN(Cc3ccc(OC)c(OC)c3)C2=S)cc1`, the Potency is reported as inconclusive: 18.4 µM [inhibitor, partial curve].
In the case of `Cc1cc(C)c(NC(=O)Cn2nnc(C(=O)NCc3cccs3)c2N)c(C)c1`, the Potency is reported as inconclusive: 6.51 µM [activator, single point].
For `CCCCNc1ncnc2c1cnn2-c1ccc(Cl)cc1`, the Potency was inconclusive: 6.51 µM [activator, partial curve].
With `O=c1c2cc(Cl)ccc2nc(-c2ccc([N+](=O)[O-])cc2)n1O` the Potency was active: 18.3 µM.
For `CC(=O)c1cnc2cc(-c3ccccc3)nn2c1C`, the Potency was inconclusive: 2.31 µM [activator, full curve].
In the case of `CCOC(=O)c1c(NC(=O)CSc2ncnc3[nH]ncc23)sc2c1CCC(C)C2` (stereo not drawn), the Potency is reported as inconclusive: 23.1 µM [inhibitor, single point].
With `CCOC(=O)c1ccc(Nc2cc(C)nc3ncnn23)cc1` the Potency was inconclusive: 18.4 µM [activator, partial curve].
For `c1ccc(-n2nnnc2-c2cnc(-c3ccncc3)nc2-c2cccs2)cc1`, the Potency was “inactive”.
For `O=C(CSc1nnc2c(Cl)cc(Cl)cn12)N1CCN(c2ccc(F)cc2)CC1`, the Potency was inconclusive: 23.1 µM [inhibitor, partial curve, poor fit].
For `COc1ccc(OCCSc2nnc3sc4ccccc4n23)cc1`, the Potency was inconclusive: 25.9 µM [activator, single point].
For `CSCc1c(C(=O)Nc2ccc3c(c2)OCO3)oc2ccccc12`, the Potency was inconclusive: 18.3 µM [activator, single point].
With `Cc1ccc(NC(=O)CNC(=O)c2ccco2)cc1` the Potency was inconclusive: 16.4 µM [activator, partial curve].
In the case of `O=C(CCSc1ccccc1)N1CCOCC1`, the Potency is reported as inconclusive: 10.3 µM [activator, partial curve].
With `CCCCNC(=O)c1ccc2c(c1)ncn2C1CCCC1` the Potency was inconclusive: 18.4 µM [activator, single point].
In the case of `CC1CCN(C(=O)CNC(=O)c2ccc(Cl)cc2Cl)CC1`, the Potency is reported as inconclusive: 16.4 µM [activator, partial curve].
In the case of `CCN1C(=O)C(CC(=O)Nc2ccc(F)cc2)N(CCc2ccc(OC)cc2)C1=S` (stereo not drawn), the Potency is reported as inconclusive: 20.6 µM [inhibitor, partial curve].
With `CCOC(=O)[C@H]1[C@H]2COc3ccccc3[C@@H]2N2C(=O)c3cc(OC)c(OC)cc3NC(=O)[C@@]12C` the Potency was inconclusive: 35.5 µM [activator, single point].
With `Nc1nn(-c2cccc(F)n2)cc1-c1ccc(Cl)cc1` the Potency was inconclusive: 1.83 µM [activator, full curve].
In the case of `Brc1cc2c(cc1C1Nc3ccccc3C3C=CCC31)OCO2` (stereo not drawn), the Potency is reported as “inactive”.
For `Cc1cc(C)cc(OC2CCCCC2NS(=O)(=O)c2ccccc2)c1` (stereo not drawn), the Potency was inconclusive: 20.6 µM [inhibitor, single point].
In the case of `COc1ccc(OC)c(Nc2nc(N)c([N+](=O)[O-])c(NCc3ccccc3)n2)c1`, the Potency is reported as inconclusive: 16.4 µM [activator, partial curve].
In the case of `Fc1cccc(NC(=S)NNc2ccccc2)c1`, the Potency is reported as “inactive”.
For `CCC(C)(C)c1ccc(OCCCC[n+]2ccc(C)cc2)c(C(C)(C)CC)c1`, the Potency was active: 10.3 µM.
For `Cc1ccc(N2CC(C(=O)N3CCCCCC3)CC2=O)cc1` (stereo not drawn), the Potency was inconclusive: 16.4 µM [activator, partial curve].
In the case of `O=C(Cc1ccccc1)NCc1ccc(-n2cccc2)cc1`, the Potency is reported as “inactive”.
In the case of `CC(OC(=O)c1cc2sccc2n1C)C(=O)NCCc1ccccc1` (stereo not drawn), the Potency is reported as inconclusive: 29.1 µM [inhibitor, single point].
In the case of `Cc1cc(C(=O)N/N=C/c2ccc(OCc3ccccc3)cc2)c(C)o1`, the Potency is reported as “inactive”.
With `CCn1c(=O)c(CCC(=O)N2CCOCC2)c(C)c2c(C)nn(-c3ccccc3)c21` the Potency was “inactive”.
For `Cc1ccc(N(CC2CO2)S(=O)(=O)c2ccccc2[N+](=O)[O-])cc1` (stereo not drawn), the Potency was “inactive”.
Potency means the concentration at half of the fitted maximal effect.
